Laboratory results: article PMC12147762

Molecular target: T1, POU2AF1 (human (endogenous in MM1.S)) (UniProt Q16633)
T1 sequence: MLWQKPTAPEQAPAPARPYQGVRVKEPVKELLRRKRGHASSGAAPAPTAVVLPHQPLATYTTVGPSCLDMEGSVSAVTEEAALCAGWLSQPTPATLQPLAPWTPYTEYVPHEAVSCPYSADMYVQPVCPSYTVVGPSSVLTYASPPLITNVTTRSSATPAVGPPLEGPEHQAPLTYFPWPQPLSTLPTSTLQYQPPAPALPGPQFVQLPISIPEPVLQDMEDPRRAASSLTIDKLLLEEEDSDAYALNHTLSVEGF
Experiment: affinity purification with mass spectrometry; POU2AF1 RIME in MM1.S cells: 1% formaldehyde cross-linking for 8 min, sonicated nuclear lysate, immunoprecipitation overnight at 4°C, TMT labelling, LC-MS/MS

B1: IRF4 (protein, UniProt Q15306 1-451)
chain: MNLEGGGRGGEFGMSAVSCGNGKLRQWLIDQIDSGKYPGLVWENEEKSIFRIPWKHAGKQDYNREEDAALFKAWALFKGKFREGIDKPDPPTWKTRLRCALNKSNDFEELVERSQLDISDPYKVYRIVPEGAKKGAKQLTLEDPQMSMSHPYTMTTPYPSLPAQQVHNYMMPPLDRSWRDYVPDQPHPEIPYQCPMTFGPRGHHWQGPACENGCQVTGTFYACAPPESQAPGVPTEPSIRSAEALAFSDCRLHICLYYREILVKELTTSSPEGCRISHGHTYDASNLDQVLFPYPEDNGQRKNIEKLLSHLERGVVLWMAPDGLYAKRLCQSRIYWDGPLALCNDRPNKLERDQTCKLFDTQQFLSELQAFAHHGRSLPRFQVTLCFGEEFPDPQRQRKLITAHVEPLLARQLYYFAQQNSGHFLRGYDLPEHISNPEDYHRSIRHSSIQE
binding: binds

No constants are given. Whether binding was seen depends on the method and setting. Binding seen in cells or lysates may run through a third protein. A yes stands for co-enrichment or nearness to the bait. Other partners may have been found.
